# Assay results taken from PubChem BioAssay AID2551 (National Center for Advancing Translational Sciences (NCATS), 2010).
# Sequences of proteins named here, by UniProt entry; tags and fusion partners are left off. A change or cut given only in a name is not applied to a line headed by its entry.
# UniProt P51450: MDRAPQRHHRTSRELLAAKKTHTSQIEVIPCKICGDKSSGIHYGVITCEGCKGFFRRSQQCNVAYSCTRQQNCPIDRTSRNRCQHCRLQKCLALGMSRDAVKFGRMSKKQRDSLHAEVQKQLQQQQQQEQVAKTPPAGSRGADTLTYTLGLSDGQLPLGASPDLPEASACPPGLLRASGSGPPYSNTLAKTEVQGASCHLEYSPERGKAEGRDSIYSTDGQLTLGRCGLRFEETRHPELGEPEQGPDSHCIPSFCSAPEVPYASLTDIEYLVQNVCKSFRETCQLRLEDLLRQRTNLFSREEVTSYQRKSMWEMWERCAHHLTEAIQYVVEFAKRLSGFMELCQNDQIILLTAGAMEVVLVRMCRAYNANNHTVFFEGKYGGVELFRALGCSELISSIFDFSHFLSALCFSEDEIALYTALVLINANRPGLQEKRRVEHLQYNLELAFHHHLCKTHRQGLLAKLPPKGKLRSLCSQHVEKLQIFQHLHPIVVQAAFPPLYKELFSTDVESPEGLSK
# The campaign covered roughly 310,000 compounds. About 17,000 (5.5%) were called active. This list was built around the results that the source calls inconclusive (neither active nor inactive); the mix of calls is not that of the screen. The call rests on the fitted dose curve; in most records, active means well fitted inhibition curve with a large enough effect; inconclusive means small, poorly fitted or top-dose-only effect, or effect the other way; inactive means no such curve, though single readings can be large or run the other way. Where the call is inconclusive, the potency comes from a doubtful curve fit.
# Target: Nuclear receptor ROR-gamma (Mus musculus) (UniProt P51450)
# Experiment: qHTS for inhibitors of ROR gamma transcriptional activity; further: nearly all actives have a fitted effect of over 60% in size
# Details: Drosophila S2 Gal4-RORgamma UAS-luciferase reporter, 20 h; activity change, negative = inhibition: at 53.6 µM (top of the series)
# Procedure, shortened: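 In this cell-based reporter format, copper sulfate (700 uM final) drives Gal4–ROR gamma fusion expression from a metallothionein promoter in Drosophila Schneider cells; compounds preincubated 1 hr, reporter read after 20 hr at ambient temperature.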
# On the % scale 0 is the no-effect control and ±100 the full control effect; potency means the concentration at half of the fitted maximal effect.
SMILES,Potency,"activity change, negative = inhibition"
CCOc1cc(C(=O)OCC(=O)Nc2ccc(Cl)cn2)ccc1OCC(=O)N1CCOCC1,"inconclusive: 14.1 µM [activator, partial curve]",
CCOc1ccc2c(=O)c(Oc3ccccc3OCC)coc2c1,"inconclusive: 1.12 µM [activator, partial curve, poor fit]",
COC(=O)c1sccc1NC(=O)c1csc2c1CCCC2,"inconclusive: 20 µM [activator, partial curve]",
O=C(c1[nH]ncc1-c1cccc(Br)c1)C1CO1 (centres undefined),"inconclusive: 10 µM [inhibitor, partial curve]",
COC(=O)c1ccc(/C=N/NC(=O)c2ccccc2Cl)cc1,"inconclusive: 11.2 µM [activator, partial curve, poor fit]",
O=C(Cc1ccccc1)Nc1ccc(NC(=O)C2CCCCC2)nc1,"inconclusive: 35.5 µM [inhibitor, single point]",
CCOC(=O)c1sc(NC(=O)c2cccc(S(=O)(=O)N3CCN(C)CC3)c2)cc1C,"inconclusive: 3.16 µM [inhibitor, single point]",
O=C(Nc1ccccc1-c1ccccc1)C12CC3CC(CC(C3)C1)C2,"inconclusive: 17.8 µM [activator, single point]",
CSc1nnc(N2C(=O)C(O)=C(C(=O)c3ccc(C)o3)C2c2ccc(C)cc2)s1 (centres undefined),,inactive: -33.2%
CCN(CC(=O)NCc1ccc(F)cc1)C(=O)COc1ccc2ccccc2c1,"inconclusive: 35.5 µM [activator, single point]",
Cc1ccccc1-n1c(SCC(=O)NCc2cccs2)nc2ccccc2c1=O,"inconclusive: 31.6 µM [activator, single point]",
CCOc1ccc(C(=O)NCc2ccco2)cc1OC,"inconclusive: 5.62 µM [activator, single point]",
O=C(CSc1cccc2cccnc12)NCc1ccco1,"inconclusive: 10 µM [inhibitor, partial curve]",
O=C(NC(=S)NCCSc1ccccc1)c1cccnc1,active: 12.6 µM,
O=C(N/N=C/C1CC=CCC1)c1ccccc1O (centres undefined),active: 11.2 µM,
Cc1ccc(-n2c(Cl)c(Cl)nc(Cl)c2=O)cc1,active: 2.82 µM,
CCOC(=O)C1=C(C)N(C)C(=O)NC1c1ccc(C)s1 (centres undefined),,inactive: -11.1%
Cc1cnc(CNc2ncncc2-c2ccccc2CN(C)C)cn1,"inconclusive: 14.1 µM [activator, single point]",
CC[C@H](CO)Nc1nc(Nc2cccc(Cl)c2)c2ncn(C(C)C)c2n1,"inconclusive: 5.62 µM [inhibitor, single point]",
CC1CCc2[nH]c3ccc(C(=O)O)cc3c2C1 (centres undefined),"inconclusive: 14.1 µM [activator, single point]",
CC1=NN(C(=O)Cc2ccccc2)C(O)(c2cccnc2)C1 (centres undefined),active: 6.31 µM,
Cc1ccc(S(=O)(=O)Cc2ccc(C(=O)N3CCN(Cc4ccccc4)CC3)o2)cc1,,inactive: 3.59%
CC(C)N(Cc1cc2ccccc2[nH]c1=O)C(=O)C(C)(C)C,"inconclusive: 0.708 µM [inhibitor, single point]",

SMILES,Potency,"activity change, negative = inhibition"
CCCCCCCCOc1ccc(C2OC34CCCCC3C(C#N)(C#N)C2(C#N)C(=N)O4)cc1 (centres undefined),,inactive: -6.11%
COc1ccc(CNc2ncnc3ccc(-c4ccc5c(c4)OCO5)cc23)c(OC)c1,"inconclusive: 6.31 µM [activator, partial curve]",
COC(=O)Cn1ncn2c(cc3oc(C)cc32)c1=O,,inactive: 1.19%
N#CCSc1nc2sc3c(c2c(=O)n1C1CCCCC1)CCCC3,"inconclusive: 22.4 µM [inhibitor, single point]",
ClCC1NCC(c2ccccc2Cl)c2c1[nH]c1ccccc21 (centres undefined),,inactive: -8.12%
COc1cccc(-c2cc(C(=O)Nc3nc4ccccc4s3)c3ccccc3n2)c1,"inconclusive: 4.47 µM [inhibitor, full curve, poor fit]",
Cc1cc(C)c(S(=O)(=O)NCCc2ccccc2)c(C)c1,"inconclusive: 20 µM [inhibitor, single point]",
CCOC(=O)c1c(NC(=O)Cn2nnc3ccccc32)sc2c1CCC(C)C2 (centres undefined),"inconclusive: 12.6 µM [activator, partial curve]",
CCOC(=O)c1ccc(S(=O)(=O)N2CCC(C(=O)O)CC2)cc1,,inactive: 1.94%
COc1ccc(-c2nnn(CC(=O)N(CCO)C(C(=O)NC3CCCC3)c3ccncc3)n2)cc1 (centres undefined),"inconclusive: 10 µM [inhibitor, partial curve, poor fit]",
Cc1ccc(C)c(NC(=O)C2CCCN(S(=O)(=O)c3cccnc3)C2)c1 (centres undefined),"inconclusive: 35.5 µM [activator, single point]",
COc1cc(OC)c2ccc(=O)oc2c1C(CCN1CCCC1)c1ccc2c(c1)OCO2 (centres undefined),inactive,
CCOC(=O)c1nn(-c2cccc(C)c2)cc1C(=O)c1ccccc1,"inconclusive: 0.501 µM [activator, full curve, poor fit]",
CCOC(=O)c1c(-c2ccc(C)cc2)csc1NC(=O)CCSc1nnc2ccccn12,"inconclusive: 6.31 µM [activator, partial curve, poor fit]",
COc1cc(OC)c2c(-c3cccc(-c4cccc(N)c4)c3)cc(=O)oc2c1,"inconclusive: 35.5 µM [inhibitor, single point]",
COc1ccc(C(=O)Oc2cc(/C=N/NS(=O)(=O)c3ccccc3)ccc2OC)cc1,"inconclusive: 3.98 µM [activator, full curve, poor fit]",
CCOc1ccc(NC(=S)Nc2cc(OC)c(Cl)cc2OC)cc1,active: 10 µM,
CC(C)NC(=S)N/N=C/c1cccnc1,"inconclusive: 22.4 µM [inhibitor, partial curve, poor fit]",
CCCCC1S/C(=N/N=C/c2ccco2)NC1=O (centres undefined),active: 0.447 µM,
N/C(=N\OC(=O)c1cccc(Cl)c1)c1ccccn1,"inconclusive: 31.6 µM [inhibitor, single point]",
Cc1cc(C)cc(NC(=O)c2sc3nc(C)cc(C)c3c2N)c1,"inconclusive: 4.47 µM [activator, full curve]",
COc1ccc(CC(=O)n2[nH]c(=O)ccc2=O)cc1OC,"inconclusive: 15.8 µM [inhibitor, single point]",
Cc1cc2ccccc2n2c(SCC(=O)Nc3ccc(S(=O)(=O)N4CCCCC4)cc3)nnc12,"inconclusive: 11.2 µM [activator, partial curve]",

SMILES,Potency,"activity change, negative = inhibition"
CC(=O)c1ccc(N2CCN(S(=O)(=O)c3cc4c(cc3C)NC(=O)CO4)CC2)cc1,"inconclusive: 35.5 µM [inhibitor, single point]",
COC(=O)c1ccc(NC(=O)CCS(=O)(=O)c2ccc3c(c2)NC(=O)C(C)S3)cc1 (centres undefined),,inactive: -38.8%
COc1cc(NC(=S)NC2CC2)c(OC)cc1Cl,active: 10 µM,
CCC(=O)NC(=S)Nc1cccc(NC(=O)c2ccccc2Cl)c1,active: 11.2 µM,
O=C(O)C(Cc1ccccc1)N1C(=O)CCC1=O (centres undefined),,inactive: -2.74%
Cc1ccccc1C(=O)NC(=S)NC1CC1,active: 14.1 µM,
CC(=O)NCCC(=O)Nc1cccc(S(=O)(=O)N(C)c2ccccc2)c1,,inactive: 26.2%
CCn1cc(/C=N\NC(=O)c2ccc(F)cc2)cn1,"inconclusive: 20 µM [inhibitor, single point]",
Cc1nc(N2CCN(Cc3ccccc3)CC2)c(C#N)c2c1COC(C)(C)C2,"inconclusive: 6.31 µM [activator, single point]",
Cn1cc([N+](=O)[O-])c(C(=O)Nc2cc(Oc3cccnc3)cc([N+](=O)[O-])c2)n1,"inconclusive: 31.6 µM [activator, single point]",
CCNC(=O)[C@@H]1CCCN1C(=O)[C@H](CCCN=C(N)N)NC(=O)[C@H](CC(C)C)NC(=O)[C@@H](Cc1c[nH]c2ccccc12)NC(=O)[C@H](Cc1ccc(O)cc1)NC(=O)[C@H](CO)NC(=O)[C@H](Cc1c[nH]c2ccccc12)NC(=O)[C@H](Cc1cnc[nH]1)NC(=O)[C@@H]1CCC(=O)N1,"inconclusive: 11.2 µM [inhibitor, single point]",
Cc1[nH]n(C(C)(C)C)c(=O)c1Sc1ccc(Cl)cc1,"inconclusive: 10 µM [activator, partial curve, poor fit]",
O=C(CN1CCCC1)Nc1ccccc1Sc1ccccc1,,inactive: 10.1%
NNc1nc(Nc2ccc([N+](=O)[O-])cc2)nc(N2CCCCCC2)n1,"inconclusive: 12.6 µM [inhibitor, single point]",
CN(C)CCN=Cc1c(O)n(Cc2ccccc2)c(=O)c2ccccc12,active: 12.6 µM,
COc1cccc(-c2noc(C3CCCN(C(=O)c4ccccc4OC)C3)n2)c1 (centres undefined),"inconclusive: 15.8 µM [activator, single point]",
Cc1cc(/C=N/NC(=O)c2cccc(N(C)C)c2)c(C)n1-c1cc(C(=O)O)cc(C(=O)O)c1,,inactive: -14.1%
CC(CCc1ccccc1)NC(=O)/C=C/c1ccc(Cl)cc1 (centres undefined),"inconclusive: 2.82 µM [inhibitor, single point]",
CC(C)(C)c1ccc2c(c1)OC(C(=O)N/N=C\c1ccc[nH]1)CO2 (centres undefined),active: 7.94 µM,
COc1ccc(/C=C2\SC(=O)N(CCNC(=O)Cc3coc4cc(OC)ccc34)C2=O)cc1,"inconclusive: 3.55 µM [activator, full curve]",
COc1ccc(O)c(-c2c(-c3ccc(Cl)cc3)n[nH]c2C)c1,"inconclusive: 12.6 µM [activator, single point]",
COc1cc(C(=O)NCc2cc3ccccc3n2C)cc(OC)c1OC,"inconclusive: 25.1 µM [activator, single point]",
Cc1ccc(C(=O)NC(=S)N2CCN(c3cc(C)ccc3C)CC2)cc1,active: 1 µM,

# Of the compounds above, these have a nitro group on carbon:
SMILES,Potency,"activity change, negative = inhibition"
Cn1cc([N+](=O)[O-])c(C(=O)Nc2cc(Oc3cccnc3)cc([N+](=O)[O-])c2)n1,"inconclusive: 31.6 µM [activator, single point]",
NNc1nc(Nc2ccc([N+](=O)[O-])cc2)nc(N2CCCCCC2)n1,"inconclusive: 12.6 µM [inhibitor, single point]",
